Literature values as cited in patent US20050015823A1, “Screening methods employing fish model assessment of vision” (priority 2001, published 2005).
For at least one compound, name, drawing or mass did not settle the structure.

Tested on: interleukin 11
Details: mice, lung overexpression; without doxycycline less than 50 pg/ml; cited from earlier work

SMILES: C[C@H]1c2cccc(O)c2C(=O)C2=C(O)[C@]3(O)C(=O)C(C(N)=O)=C(O)[C@@H](N(C)C)[C@@H]3[C@@H](O)[C@@H]21 [Doxycycline, doxycycline]
- levels of IL-11 on doxycycline induction: greater than 0.3 ng/ml
